The text below walks through data of PubChem BioAssay AID2685 (National Center for Advancing Translational Sciences (NCATS), 2010).

SMILES strings stand for the structures. The list shows a part of the results. These are further read-outs of the screen, such as a control signal, another cell line or another target. No call is given for them. Compounds called inactive in the main read-out are mostly missing here. Words in brackets tell the shape of the fitted curve; partial curves, single points and poor fits give uncertain potencies.

The nature of this experiment: qHTS Assay for Lipid Storage Modulators in Drosophila S3 Cells.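 On cell number change: cells counted by Cell Tracker Red CMTPX staining in the red channel.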 Conditions: BODIPY lipid droplet fluorescence, 18-24 h; for cell number change: measured here: cell count max response, cells fed with added oleic acid. Summed up:
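Drosophila S3 cells loaded with oleic acid (400 uM, as added) and compounds at several concentrations; lipid droplets imaged by 488-nm laser-scanning cytometry, 500–530 nm intensity and object ratio to cell channel. Percent activity normalized to 20 uM Triacsin C.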
Background: In qHTS, concentration-response curves come from the screen itself.

Where [1] appears, read: measured here: cell number channel AC50, cells fed with added oleic acid.
The mark [2] stands for this setting: measured here: lipid fluorescence (Fed channel) AC50, cells fed with added oleic acid.

`CC(=O)OC(C)(C)/C=C/C(=O)[C@](C)(O)[C@H]1[C@H](O)C[C@@]2(C)[C@@H]3CC=C4[C@H](C[C@H](O)C(=O)C4(C)C)[C@]3(C)C(=O)C[C@]12C`: the cell number change is -21.4%. Also, the AC50 under setting [1] was 0.103 µM [falling, full curve, poor fit]. Further, under setting [2], the concentration at half-maximal activity (AC50) is 0.0206 µM [falling, full curve, poor fit].
For the compound `CC12CCCCC1=NC(c1ccc(Br)cc1)N2O` (stereo not given), the cell number change is 5.21%. Besides, under setting [2], the AC50 is 29.1 µM [rising, single point].
`CC(/C=C(\C)Nc1ccccc1)=Nc1ccccc1`: the cell number change was -90.7%. Further, the AC50 under setting [1] is 29.1 µM [falling, single point].
Take `COc1ccc(Cn2c(O)c(C=NCCN3CCOCC3)c(=O)[nH]c2=O)cc1`: the cell number change is 0.201%. For the same compound, under setting [2], the AC50 was 3.66 µM [falling, single point].
`C=C1C(=O)O[C@@H]2C[C@@H](C)[C@@H]3C4OC4C(=O)[C@@]3(C)[C@@H](O)[C@H]12` (stereo not given in full): the cell number change was -72.6%. Moreover, the AC50 under setting [1] is 23.1 µM [falling, partial curve]. Besides, the half-maximal activity concentration (AC50) under setting [2] was 25.9 µM [falling, partial curve].
In the case of `COC(=O)C1=C(c2ccccc2OCc2ccccc2)C[C@@H]2CC[C@H]1N2C(=O)NCc1cccc(C(F)(F)F)c1`, the cell number change was -12.9%. Further, the AC50 under setting [2] is 14.6 µM [falling, single point].
In the case of `Cc1ccc(C(=O)COC(=O)Cc2ccccc2)cc1`, the cell number change amounted to 33.8%. Besides, under setting [1], the AC50 is 6.31 µM [rising, partial curve, poor fit].
On to `O=C1NC(=O)C2=Cc3ccc(O)cc3OC2(O)N1` (stereo not given), for which the cell number change was found to be 62.3%. In addition, under setting [1], the AC50 is 29.1 µM [rising, single point]. For the same compound, under setting [2], the AC50 was 18.4 µM [rising, partial curve].
Turning to `CC(NC1=NCCS1)c1ccccc1` (stereo not given), the cell number change came to 8.82%.
Same read-out and setting: to `Oc1ccc(C[C@H]2NCCc3cc(O)c(O)cc32)cc1O` belongs 11.7%.
Regarding `O=C1C(Cl)=CC(=Nc2ccc(O)cc2)C=C1Cl`, the cell number change is -42.7%. Also, the AC50 under setting [1] was 16.4 µM [falling, partial curve]. Moreover, the AC50 under setting [2] was 0.651 µM [rising, partial curve, poor fit].
Turning to `COC(=O)C(O)(c1ccc(NC(=S)NC(=O)c2ccc(Cl)cc2Cl)c(C)c1)C(F)(F)F` (stereo not given), the cell number change was -4.08%. Besides, the AC50 under setting [2] was 0.58 µM [rising, single point].
As for `NS(=O)(=O)OC(CCc1ccccc1)C(Cl)(Cl)Cl` (stereo not given), the cell number change worked out at 19.7%. The concentration at half-maximal activity (AC50) under setting [2] was 20.6 µM [falling, single point].
As to `COc1ccc(N2C(=O)/C(=C/c3ccc(C)o3)C(=O)NC2=S)c(OC)c1`, the cell number change was -0.365%. The AC50 under setting [2] is 0.731 µM [rising, full curve].
For `C=CCn1c(O)c(C(C)=Nc2ccc(NC(C)=O)cc2)c(=O)[nH]c1=O`, the cell number change was -1.97%.
As for `O=C(Cn1ncc2ccsc2c1=O)N1CCC2(CC1)OCCO2`, the cell number change amounted to 12.6%. Besides, the AC50 under setting [2] was 0.0058 µM [rising, full curve, poor fit].
With `Cc1cc(C)n(-c2ccc(NN=C(C#N)C#N)cc2)n1`, the cell number change is -51.9%. Also, the half-maximal activity concentration (AC50) under setting [1] is 18.4 µM [falling, single point]. Also, under setting [2], the AC50 was 18.4 µM [falling, single point].
In the case of `CCOc1ccc(/C=C2/C(=O)NC(=O)N(CCc3ccc(F)cc3)C2=O)cc1`, the cell number change was -0.249%. Further, under setting [2], the AC50 was 1.84 µM [rising, partial curve, poor fit].
In the case of `CC1SC2(CN3CCC2CC3)NC1=O` (stereo not given), the cell number change is -2.82%.
In the case of `CCCOC(=O)c1c(N)n(Cc2cccs2)c2nc3ccccc3nc12`, the cell number change is -1.74%. Moreover, the AC50 under setting [1] is 0.291 µM [rising, full curve]. The concentration at half-maximal activity (AC50) under setting [2] was 0.517 µM [rising, full curve].
Regarding `CCc1c(C)nc(N)nc1N1N=C1SCC(N)=O`, the cell number change came out at 31.3%. Moreover, the AC50 under setting [1] is 32.6 µM [rising, single point]. For the same compound, the half-maximal activity concentration (AC50) under setting [2] was 0.116 µM [rising, full curve, poor fit].
For `C=C1C(=O)O[C@@H]2C[C@@H](C)[C@@H]3C=CC(=O)[C@@]3(C)[C@@H](OC(C)=O)[C@H]12`, under setting [1], the AC50 was 6.51 µM [falling, partial curve].
Regarding `CCc1ccccc1N1C(=O)/C(=C/c2ccc(N3CCN(C)CC3)o2)C(=O)NC1=S`, the cell number change is -31.1%. Under setting [1], the concentration at half-maximal activity (AC50) was 29.1 µM [falling, single point]. Further, the half-maximal activity concentration (AC50) under setting [2] was 11.6 µM [falling, partial curve].
In the case of `OC(CCNCCc1c[nH]c2ccccc12)C(F)(F)F` (stereo not given), the cell number change was -20.7%. The half-maximal activity concentration (AC50) under setting [2] is 3.66 µM [falling, full curve, poor fit].
For `C=CCN1C(=O)NC(=O)/C(=C/c2cnc(SC)nc2)C1=O`, the cell number change was -52.1%. The AC50 under setting [1] was 6.51 µM [falling, full curve]. In addition, under setting [2], the AC50 was 5.8 µM [falling, full curve, poor fit].
For the compound `O=Cc1cn(Cc2ccc([N+](=O)[O-])cc2)c2ccccc12`, the cell number change came to 4.7%. Also, the half-maximal activity concentration (AC50) under setting [2] is 5.8 µM [rising, single point].
`CCOc1cc2c(cc1OCC)-n1cccc1C(c1ccc(OC(F)F)cc1)NC2` (stereo not given): the cell number change is -62.3%. Besides, the AC50 under setting [1] was 25.9 µM [falling, partial curve, poor fit]. Also, the half-maximal activity concentration (AC50) under setting [2] is 18.4 µM [falling, partial curve].
As for `O=C(O)c1ccc(/C=C/c2nc3ccccc3c(=O)n2-c2ccc(Br)cc2)cc1`, the cell number change is 26.1%. Further, under setting [1], the half-maximal activity concentration (AC50) is 0.651 µM [rising, full curve, poor fit]. Besides, the half-maximal activity concentration (AC50) under setting [2] is 29.1 µM [falling, single point].
On to `Nc1ccc(C2(c3ccc(N)cc3)c3ccccc3-c3ccccc32)cc1`, for which the cell number change is -16.9%. Moreover, the concentration at half-maximal activity (AC50) under setting [2] was 2.31 µM [rising, partial curve, poor fit].
With `Cc1cc(NC(=O)CCl)no1`, the cell number change was -35.7%. Under setting [1], the concentration at half-maximal activity (AC50) was 10.3 µM [falling, partial curve]. Also, the AC50 under setting [2] was 11.6 µM [falling, partial curve].
In the case of `CC(Cc1ccccc1)[n+]1cc(/N=C(\[O-])Nc2ccccc2)on1` (stereo not given), the cell number change was found to be 71.9%. Besides, under setting [1], the half-maximal activity concentration (AC50) is 0.411 µM [rising, partial curve]. Besides, the AC50 under setting [2] was 0.13 µM [rising, full curve, poor fit].
For the compound `CC(C)CNC(=O)c1c(N)n(Cc2ccc3c(c2)OCO3)c2nc3ccccc3nc12`, the cell number change was -75.6%. Moreover, the half-maximal activity concentration (AC50) under setting [2] is 1.16 µM [rising, partial curve].
For the compound `CCCC(C)C1C(C#N)=C(N)Oc2c1c(=O)oc1ccccc21` (stereo not given), the cell number change turned out to be 1.41%. Besides, the concentration at half-maximal activity (AC50) under setting [2] was 3.26 µM [rising, partial curve].
With `Cc1nn(CCC#N)c2c1P(=S)(N1CCCC1)OC(c1ccc(F)cc1)=N2` (stereo not given), the cell number change was determined as 2.69%. Also, the AC50 under setting [2] is 0.146 µM [rising, full curve, poor fit].
For `O=C1NC(=O)N(c2ccc(F)cc2)C(=O)/C1=C/c1ccsc1`, the cell number change is -16%.
Take `CN(C)c1cc[n+](CC(O)C[n+]2ccc(N(C)C)cc2)cc1`: the cell number change stood at 0.328%. In addition, the AC50 under setting [2] was 1.84 µM [rising, full curve, poor fit].
For `Cc1cc(OC(=O)c2ccco2)c2c3c(c(=O)oc2c1)CCCC3`, the AC50 is 0.58 µM [falling, full curve, poor fit] under setting [1] and 0.731 µM [falling, full curve] under setting [2].
Turning to `CN1CCN(c2nc([N+](=O)[O-])nn2C)CC1`, the cell number change was determined as 10.2%. In addition, the AC50 under setting [2] is 1.64 µM [rising, partial curve].
Turning to `NP(=O)(OCCCCc1ccccc1)Oc1ccccc1Cl` (stereo not given), the cell number change worked out at 17.5%. Besides, under setting [2], the concentration at half-maximal activity (AC50) was 23.1 µM [rising, partial curve, poor fit].
As for `COC(C)(C)CCCC(C)C/C=C/C(C)=C/C(=O)OC(C)C` (stereo not given), the cell number change is -11.6%. Also, the half-maximal activity concentration (AC50) under setting [2] is 16.4 µM [rising, partial curve, poor fit].
`COc1ccc(Br)cc1CN1CCN(CCO)CC1`: the cell number change was -1.14%. The concentration at half-maximal activity (AC50) under setting [2] was 4.11 µM [falling, partial curve].
Consider `COC(=O)C1=C(c2ccc(Cl)c(C(F)(F)F)c2)C[C@@H]2CC[C@H]1N2C(=O)NCc1ccc2c(c1)OCO2`, for which the cell number change was -32.8%. Moreover, the half-maximal activity concentration (AC50) under setting [1] was 0.092 µM [falling, full curve, poor fit]. The concentration at half-maximal activity (AC50) under setting [2] is 0.651 µM [rising, full curve].
`O=P(OC1CCCCC1)(OC1CCCCC1)C(Nc1ccccc1)c1cccnc1` (stereo not given): under setting [1], the AC50 was 0.731 µM [rising, full curve, poor fit].
Take `CCn1ccnc1CN1CCCC(C(=O)c2ccc(OC)cc2OC)C1` (stereo not given): the cell number change was -28.2%. In addition, the AC50 under setting [2] is 0.82 µM [falling, full curve, poor fit].
Consider `Cc1nn(Cc2ccccc2)c(C)c1C(=O)OCC(=O)NCc1ccco1`, for which the cell number change amounted to 10.9%. Besides, under setting [2], the concentration at half-maximal activity (AC50) is 0.651 µM [rising, full curve].
For `CC[N+](CC)(CCCCS(=O)(=O)[O-])CCNP1(=O)C=C(c2ccccc2)OC(c2ccccc2)=C1`, the AC50 under setting [1] is 6.51 µM [falling, single point].
On to `Cn1ccnc1P(=S)(c1nccn1C)N1CCOCC1`, for which the cell number change was found to be 4.81%. Also, the half-maximal activity concentration (AC50) under setting [2] is 4.61 µM [falling, single point].
As to `COC(=O)C1=C(c2ccc(OC(F)(F)F)cc2)C[C@@H]2CC[C@H]1N2C(=O)N1CCC(C)CC1`, the cell number change was -62.5%. Also, the half-maximal activity concentration (AC50) under setting [1] was 4.61 µM [falling, single point]. The AC50 under setting [2] was 3.66 µM [falling, single point].
`Cc1ccc(-n2c(O)c(/C=N/c3ncc(Br)cc3Br)c(=O)[nH]c2=O)cc1`: the AC50 was 0.0291 µM [falling, full curve, poor fit] under setting [1] and 0.00411 µM [falling, full curve, poor fit] under setting [2].
As to `COc1ccccc1-n1c(/C=C/c2ccc(O)cc2)nc2ccccc2c1=O`, the cell number change is -0.647%.
For the compound `CCC(C)n1c(O)c(C=NCCc2ccccc2)c(=O)[nH]c1=S` (stereo not given), the cell number change is 21.4%. Under setting [2], the concentration at half-maximal activity (AC50) is 4.61 µM [rising, partial curve].
`CC(=O)NC1CC2CCC(C1)N2` (stereo not given): the cell number change is -10.8%. Under setting [2], the concentration at half-maximal activity (AC50) is 2.06 µM [falling, full curve].
On to `O=C(COC(=O)Cc1ccccc1)Nc1cccnc1Cl`, for which the cell number change turned out to be 18.4%. Moreover, under setting [2], the AC50 was 0.146 µM [falling, full curve, poor fit].
In the case of `Cc1ccc(N2C(=O)/C(=C/N3CCN(C(=O)c4ccco4)CC3)C(=O)NC2=S)cc1C`, the cell number change came out at 112%. Moreover, the AC50 under setting [1] is 4.11 µM [rising, full curve]. Also, under setting [2], the half-maximal activity concentration (AC50) is 4.11 µM [rising, partial curve].

As a reminder, the AC50 is the concentration at which the activity in the assay is half-maximal.
